This is a selection; strong and weak results do not stand in their true shares. Single values of this set are uncertain.
compound: COC(=O)/C=C/c1ccccc1 [methyl cinnamate]; assay: log2 ratio of iodoacetamide-alkyne labeling of the cysteine site, DMSO over compound (competition); higher = stronger covalent engagement of the cysteine by the compound, active = 1 or more; conditions: 500 µM; treatment time 1 h; system: HEK293T cell lysate
How it was run: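 Reporter intensities give each cysteine's log2 competition ratio as the mean of control channels over the mean of compound channels. The samples were HEK293T lysate (2 mg/mL) given vehicle or electrophile (500 µM, 1 h, ambient temperature), then iodoacetamide alkyne (1 h), followed by click coupling to sCIP-TMT reagents, pooling, trypsin digestion overnight at 37 °C, streptavidin enrichment, acid elution, Orbitrap Eclipse LC-MS/MS with FAIMS and FragPipe quantification. Duplicate channels and three replicates were run, and cysteines quantified in only one replicate were discarded.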

By UniProt entry, the sequences of proteins in these tests, tags left out. Where a name states a change or a piece, a line headed by the entry shows the natural chain unless it says otherwise.
UniProt P55036: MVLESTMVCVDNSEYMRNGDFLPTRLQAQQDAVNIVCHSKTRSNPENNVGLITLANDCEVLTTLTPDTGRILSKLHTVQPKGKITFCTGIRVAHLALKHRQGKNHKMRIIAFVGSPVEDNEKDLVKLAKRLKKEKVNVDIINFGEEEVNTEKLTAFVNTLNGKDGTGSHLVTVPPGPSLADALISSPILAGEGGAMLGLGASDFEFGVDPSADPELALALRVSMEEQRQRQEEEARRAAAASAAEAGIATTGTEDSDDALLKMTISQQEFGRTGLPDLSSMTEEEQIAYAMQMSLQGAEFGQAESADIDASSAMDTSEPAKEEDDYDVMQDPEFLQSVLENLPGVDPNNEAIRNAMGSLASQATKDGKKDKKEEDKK
UniProt P55209: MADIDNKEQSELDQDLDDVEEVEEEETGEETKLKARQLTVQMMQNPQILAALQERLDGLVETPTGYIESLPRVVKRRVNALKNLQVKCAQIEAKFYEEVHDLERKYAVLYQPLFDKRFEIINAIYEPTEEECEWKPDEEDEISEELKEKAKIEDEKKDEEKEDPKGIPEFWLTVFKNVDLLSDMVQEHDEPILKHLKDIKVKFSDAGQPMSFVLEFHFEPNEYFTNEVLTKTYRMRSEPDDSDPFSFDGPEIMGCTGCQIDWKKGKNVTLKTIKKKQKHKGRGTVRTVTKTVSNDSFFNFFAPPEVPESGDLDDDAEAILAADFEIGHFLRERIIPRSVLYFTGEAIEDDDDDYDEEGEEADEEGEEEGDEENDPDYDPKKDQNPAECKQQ
UniProt P54920: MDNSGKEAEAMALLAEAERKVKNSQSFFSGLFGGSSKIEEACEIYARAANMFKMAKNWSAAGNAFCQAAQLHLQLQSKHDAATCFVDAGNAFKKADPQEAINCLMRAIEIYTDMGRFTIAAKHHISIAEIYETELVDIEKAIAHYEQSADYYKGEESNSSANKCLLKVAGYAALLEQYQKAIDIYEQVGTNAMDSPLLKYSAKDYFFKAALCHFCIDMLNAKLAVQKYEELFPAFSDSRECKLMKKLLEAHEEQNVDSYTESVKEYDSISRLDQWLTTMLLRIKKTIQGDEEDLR
UniProt P52701: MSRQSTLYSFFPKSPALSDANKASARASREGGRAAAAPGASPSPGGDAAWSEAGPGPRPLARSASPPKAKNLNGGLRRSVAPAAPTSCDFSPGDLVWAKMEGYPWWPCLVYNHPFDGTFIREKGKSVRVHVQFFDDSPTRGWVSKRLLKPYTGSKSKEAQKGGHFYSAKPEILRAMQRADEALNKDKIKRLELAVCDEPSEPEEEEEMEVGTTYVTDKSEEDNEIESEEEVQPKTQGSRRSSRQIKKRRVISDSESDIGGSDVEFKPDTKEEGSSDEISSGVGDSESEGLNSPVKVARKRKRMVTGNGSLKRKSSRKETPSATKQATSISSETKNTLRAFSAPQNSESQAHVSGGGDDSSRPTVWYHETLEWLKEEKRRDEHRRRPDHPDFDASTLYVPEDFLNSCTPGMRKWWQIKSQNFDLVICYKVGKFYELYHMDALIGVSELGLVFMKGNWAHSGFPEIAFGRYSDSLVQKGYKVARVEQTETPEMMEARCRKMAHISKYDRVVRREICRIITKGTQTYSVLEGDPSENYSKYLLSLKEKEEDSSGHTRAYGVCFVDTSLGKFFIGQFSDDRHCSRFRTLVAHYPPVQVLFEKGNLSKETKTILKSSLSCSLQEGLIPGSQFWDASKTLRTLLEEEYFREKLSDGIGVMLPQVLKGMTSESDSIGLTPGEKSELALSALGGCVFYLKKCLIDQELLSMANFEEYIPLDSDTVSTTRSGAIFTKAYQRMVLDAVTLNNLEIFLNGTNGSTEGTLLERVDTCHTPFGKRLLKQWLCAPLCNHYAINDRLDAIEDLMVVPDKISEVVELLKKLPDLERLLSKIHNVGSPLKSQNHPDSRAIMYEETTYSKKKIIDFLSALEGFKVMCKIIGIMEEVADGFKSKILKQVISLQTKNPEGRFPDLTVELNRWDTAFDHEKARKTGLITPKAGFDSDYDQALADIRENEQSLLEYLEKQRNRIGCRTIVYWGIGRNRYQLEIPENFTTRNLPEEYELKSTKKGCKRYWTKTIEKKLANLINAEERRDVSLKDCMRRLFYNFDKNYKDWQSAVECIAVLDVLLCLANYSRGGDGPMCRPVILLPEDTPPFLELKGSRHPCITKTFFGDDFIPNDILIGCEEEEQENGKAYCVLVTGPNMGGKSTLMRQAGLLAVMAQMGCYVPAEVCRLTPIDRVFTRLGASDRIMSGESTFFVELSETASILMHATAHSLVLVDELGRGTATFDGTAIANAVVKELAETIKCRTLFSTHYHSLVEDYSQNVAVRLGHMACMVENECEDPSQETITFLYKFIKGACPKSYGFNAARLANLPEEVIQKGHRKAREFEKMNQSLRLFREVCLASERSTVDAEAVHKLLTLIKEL
UniProt P61289: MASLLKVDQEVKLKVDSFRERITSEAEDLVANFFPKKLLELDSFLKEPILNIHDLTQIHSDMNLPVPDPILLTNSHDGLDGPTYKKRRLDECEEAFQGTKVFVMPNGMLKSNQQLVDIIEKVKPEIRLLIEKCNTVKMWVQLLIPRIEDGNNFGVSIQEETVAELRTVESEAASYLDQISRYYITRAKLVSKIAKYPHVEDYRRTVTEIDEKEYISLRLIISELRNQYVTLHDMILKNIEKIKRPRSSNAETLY
UniProt P54136: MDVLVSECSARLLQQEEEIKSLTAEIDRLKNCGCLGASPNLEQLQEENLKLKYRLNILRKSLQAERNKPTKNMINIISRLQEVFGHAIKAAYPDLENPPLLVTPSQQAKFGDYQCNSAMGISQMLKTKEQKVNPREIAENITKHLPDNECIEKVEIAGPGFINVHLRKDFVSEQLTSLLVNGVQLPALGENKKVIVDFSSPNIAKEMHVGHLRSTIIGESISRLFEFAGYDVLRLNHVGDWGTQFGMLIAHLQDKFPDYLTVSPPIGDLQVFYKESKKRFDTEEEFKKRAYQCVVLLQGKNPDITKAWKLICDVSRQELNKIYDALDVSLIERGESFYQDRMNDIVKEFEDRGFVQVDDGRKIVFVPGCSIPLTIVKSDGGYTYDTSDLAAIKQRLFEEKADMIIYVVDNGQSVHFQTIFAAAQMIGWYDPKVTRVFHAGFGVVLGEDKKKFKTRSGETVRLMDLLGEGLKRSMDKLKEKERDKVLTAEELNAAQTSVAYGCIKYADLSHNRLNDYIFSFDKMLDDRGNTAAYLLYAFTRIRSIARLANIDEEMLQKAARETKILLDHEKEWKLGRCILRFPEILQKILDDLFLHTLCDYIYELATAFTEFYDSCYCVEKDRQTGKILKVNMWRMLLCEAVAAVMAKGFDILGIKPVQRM
UniProt P60981: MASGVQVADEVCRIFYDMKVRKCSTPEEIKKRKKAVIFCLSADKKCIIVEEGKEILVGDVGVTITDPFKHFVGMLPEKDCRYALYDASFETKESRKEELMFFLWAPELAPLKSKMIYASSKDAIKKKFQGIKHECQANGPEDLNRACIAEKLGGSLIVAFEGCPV
UniProt P57740: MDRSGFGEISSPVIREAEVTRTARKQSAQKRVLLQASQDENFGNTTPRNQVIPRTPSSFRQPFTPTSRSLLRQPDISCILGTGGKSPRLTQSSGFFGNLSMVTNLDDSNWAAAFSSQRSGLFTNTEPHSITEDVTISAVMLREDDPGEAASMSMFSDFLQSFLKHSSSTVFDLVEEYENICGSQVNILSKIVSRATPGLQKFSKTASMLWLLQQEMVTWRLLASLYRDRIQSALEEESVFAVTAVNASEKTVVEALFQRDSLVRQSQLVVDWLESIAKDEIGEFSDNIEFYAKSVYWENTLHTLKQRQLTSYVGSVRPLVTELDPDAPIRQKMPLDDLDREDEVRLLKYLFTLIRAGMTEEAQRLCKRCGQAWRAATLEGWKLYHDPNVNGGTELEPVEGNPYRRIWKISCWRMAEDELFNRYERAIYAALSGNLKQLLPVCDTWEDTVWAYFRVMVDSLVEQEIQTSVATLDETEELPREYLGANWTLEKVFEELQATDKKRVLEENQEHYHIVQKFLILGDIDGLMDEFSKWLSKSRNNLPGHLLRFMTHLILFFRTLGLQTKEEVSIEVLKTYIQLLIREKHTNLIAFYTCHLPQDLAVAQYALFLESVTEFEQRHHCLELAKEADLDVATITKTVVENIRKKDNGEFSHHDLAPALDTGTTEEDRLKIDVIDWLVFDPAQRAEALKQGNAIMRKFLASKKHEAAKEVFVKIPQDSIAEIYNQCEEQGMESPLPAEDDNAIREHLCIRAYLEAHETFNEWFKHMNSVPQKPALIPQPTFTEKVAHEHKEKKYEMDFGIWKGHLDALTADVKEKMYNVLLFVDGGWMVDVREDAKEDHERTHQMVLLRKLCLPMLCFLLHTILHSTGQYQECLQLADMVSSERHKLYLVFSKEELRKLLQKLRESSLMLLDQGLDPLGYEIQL
UniProt P51790: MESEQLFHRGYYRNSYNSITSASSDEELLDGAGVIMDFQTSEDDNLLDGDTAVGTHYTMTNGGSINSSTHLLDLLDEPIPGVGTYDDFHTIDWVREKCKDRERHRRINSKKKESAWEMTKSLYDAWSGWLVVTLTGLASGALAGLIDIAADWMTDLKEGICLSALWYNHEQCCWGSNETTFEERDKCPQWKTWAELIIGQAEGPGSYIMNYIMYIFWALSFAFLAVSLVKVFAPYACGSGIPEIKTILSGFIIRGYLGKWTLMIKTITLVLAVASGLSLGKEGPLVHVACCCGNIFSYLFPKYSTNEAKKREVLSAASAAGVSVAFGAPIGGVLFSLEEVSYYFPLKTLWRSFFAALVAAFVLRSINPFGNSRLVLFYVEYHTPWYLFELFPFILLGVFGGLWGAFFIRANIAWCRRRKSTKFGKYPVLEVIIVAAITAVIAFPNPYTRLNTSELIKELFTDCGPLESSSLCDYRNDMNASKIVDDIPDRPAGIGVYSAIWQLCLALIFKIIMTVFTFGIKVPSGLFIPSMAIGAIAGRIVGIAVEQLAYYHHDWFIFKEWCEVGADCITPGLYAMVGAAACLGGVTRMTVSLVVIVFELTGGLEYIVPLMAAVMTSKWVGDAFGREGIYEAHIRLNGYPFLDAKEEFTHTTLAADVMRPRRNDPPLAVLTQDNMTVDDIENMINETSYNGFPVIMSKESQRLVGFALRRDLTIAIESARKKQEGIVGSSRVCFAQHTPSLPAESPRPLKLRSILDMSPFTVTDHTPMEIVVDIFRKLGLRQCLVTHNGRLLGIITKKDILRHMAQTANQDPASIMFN
UniProt P61970, whole entry: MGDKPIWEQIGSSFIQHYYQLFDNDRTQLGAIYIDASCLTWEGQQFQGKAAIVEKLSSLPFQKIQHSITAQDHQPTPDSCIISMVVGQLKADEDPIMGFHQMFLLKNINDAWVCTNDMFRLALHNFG
UniProt P55265: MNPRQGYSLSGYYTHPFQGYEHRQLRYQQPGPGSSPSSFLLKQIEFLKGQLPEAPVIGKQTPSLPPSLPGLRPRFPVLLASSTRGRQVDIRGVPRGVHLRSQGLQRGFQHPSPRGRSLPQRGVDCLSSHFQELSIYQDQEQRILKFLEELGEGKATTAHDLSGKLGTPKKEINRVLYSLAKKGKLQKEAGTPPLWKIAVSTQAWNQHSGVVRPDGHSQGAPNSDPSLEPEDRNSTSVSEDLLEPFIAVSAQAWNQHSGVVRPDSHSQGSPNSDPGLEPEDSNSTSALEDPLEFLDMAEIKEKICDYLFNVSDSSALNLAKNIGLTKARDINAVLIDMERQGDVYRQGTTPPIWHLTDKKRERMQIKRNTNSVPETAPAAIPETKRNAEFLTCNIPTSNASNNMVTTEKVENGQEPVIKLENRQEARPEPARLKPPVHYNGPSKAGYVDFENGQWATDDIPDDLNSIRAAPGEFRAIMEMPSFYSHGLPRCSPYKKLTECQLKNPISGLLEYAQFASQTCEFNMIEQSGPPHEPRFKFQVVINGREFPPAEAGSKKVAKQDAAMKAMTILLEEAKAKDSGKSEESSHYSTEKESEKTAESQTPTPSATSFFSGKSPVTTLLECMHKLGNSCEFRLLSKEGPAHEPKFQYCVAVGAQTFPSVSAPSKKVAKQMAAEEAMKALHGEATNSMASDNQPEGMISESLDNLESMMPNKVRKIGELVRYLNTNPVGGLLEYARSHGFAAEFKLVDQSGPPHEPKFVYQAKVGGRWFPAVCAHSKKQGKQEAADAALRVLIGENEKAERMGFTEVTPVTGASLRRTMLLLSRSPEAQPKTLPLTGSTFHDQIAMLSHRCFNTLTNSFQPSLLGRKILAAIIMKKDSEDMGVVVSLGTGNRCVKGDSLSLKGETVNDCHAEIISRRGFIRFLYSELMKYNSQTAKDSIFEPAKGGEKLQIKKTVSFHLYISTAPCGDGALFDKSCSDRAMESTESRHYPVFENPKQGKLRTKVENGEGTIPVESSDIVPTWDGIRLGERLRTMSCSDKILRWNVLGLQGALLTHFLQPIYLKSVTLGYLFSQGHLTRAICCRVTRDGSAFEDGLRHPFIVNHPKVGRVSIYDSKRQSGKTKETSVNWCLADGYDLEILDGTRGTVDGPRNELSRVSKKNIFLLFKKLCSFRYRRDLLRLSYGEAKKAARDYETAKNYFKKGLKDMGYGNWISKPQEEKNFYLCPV

log2 ratio of iodoacetamide-alkyne labeling, inactive:
COPB1 C616 (UniProt P53618) 0.0566, HNRNPA3 C64 (UniProt P51991) 0.277, PSMD4 C58 (UniProt P55036) -0.0215, NUBP1 C256 (UniProt P53384) 0.214, NAP1L1 C132 (UniProt P55209) 0.0976, COPB1 C888 (UniProt P53618) 0.0575, CTBP2 C60 (UniProt P56545) 0.394, EIF3B C384 (UniProt P55884) -0.106, NAPA C103 (UniProt P54920) 0.0158, CSE1L C842 (UniProt P55060) 0.29, CASP7 C116 (UniProt P55210) 0.0755, UniProt P61081_C65 0.192, MSH6 C1117 (UniProt P52701) 0.314, UniProt P61289_C92 0.311, RARS C34 (UniProt P54136) 0.313, DSTN C12 (UniProt P60981) 0.178, NUP107 C78 (UniProt P57740) 0.208, ACTR3 C12 (UniProt P61158) 0.375, RPS3A C201 (UniProt P61247) 0.00362, UniProt P61201_C392 0.416, ALDH5A1 C340 (UniProt P51649) 0.147, HCCS C178 (UniProt P53701) 0.193, NAP1L1 C88 (UniProt P55209) 0.13, UniProt P51812_C579 -0.0435, CLCN3 C733 (UniProt P51790) 0.573, UniProt P55196_C1684 0.0329, UniProt P62241_C100 -0.0435, SRP54 C136 (UniProt P61011) 0.0913, CTBP2 C318 (UniProt P56545) -0.0746, ELL C494 (UniProt P55199) 0.125, NEK4 C401 (UniProt P51957) -0.18, UniProt P62195_C209 -0.00145, ALDH18A1 C546 (UniProt P54886) 0.116, DSTN C163 (UniProt P60981) 0.0666, UniProt P61970_C114 0.397, UniProt P55072_C522 -0.141, ADAR C125 (UniProt P55265) 0.212, MARS C566 (UniProt P56192) -0.0265
